Reference: US20230346901A1, “METHODS AND VACCINE COMPOSITIONS TO TREAT CANCERS” (priority 2019, published 2023)
At least one peptide structure holds a part that was inferred or is arguable (an end, a ring closure or a residue). Ends that are not written are not given here.

Assays:
APL spleen cells = test: Electron microscopy ultrastructural analysis, APL spleen cells; type: cell-based, mouse; conditions: APL spleen cells exposed to RT53 (data not shown)
[1] = system: APL spleen blast cells derived from hMRP8-PML-RARA transgenic mice; test: LDH release cell death assay, mouse APL spleen blasts; type: cell-based
[2] = system: NB4 (ATRA-sensitive acute promyelocytic leukemia cells); test: LDH release cell death assay, NB4 cells; type: cell-based, human; conditions: increasing concentrations of RT53, 20 h
[3] = system: UF-1 (ATRA-resistant acute promyelocytic leukemia cells); test: LDH release cell death assay, UF-1 cells; type: cell-based, human; conditions: increasing concentrations of RT53, 20 h
APL blasts = test: Immunogenic cell death markers (HMGB1 ELISA, ATP bioluminescence, CRT FACS) in APL blasts; type: cell-based, mouse

Sequence: RQIKIWFQNRRMKWKKAKLNAEKLKDFKIRLQYFARGLQVYIRQLRLALQGKT [RT53]
- cell morphology by ultrastructural analysis (APL spleen cells): obvious necrotic morphology of the leukemic blasts
- killing activity (LDH release) in presence of apoptosis or necroptosis inhibitors ([1]; 5 μM RT53, 3 h, with or without 50 μM zVAD-fmk or 50 μM Necrostatin-1): not hampered by inhibitors of apoptosis or necroptosis
- cell viability / cell death by LDH release ([1]; mouse APL spleen blasts, increasing concentrations of RT53, 20 h): decreased viability of all the tested cells
- cell viability / cell death by LDH release [2]: decreased viability of all the tested cells
- cell viability / cell death by LDH release [3]: decreased viability of all the tested cells
- surface exposure of CRT (FACS) (APL blasts; 2.5 μM RT53, 6 h): surface exposure of CRT
- extracellular ATP release (ATP-bioluminescence) (APL blasts; 10 μM RT53, 1 h): triggered the release of both HMGB1 and ATP
- extracellular HMGB1 release (ELISA) (APL blasts; 10 μM RT53, 1 h): triggered the release of both HMGB1 and ATP
